This passage reports binding results from article PMC9501056.

Experiment [1] concerns the target T1, BEI (Oryza sativa subsp. indica cv. IR36 (endogenous in developing seeds)) (UniProt Q01401).
T1 sequence: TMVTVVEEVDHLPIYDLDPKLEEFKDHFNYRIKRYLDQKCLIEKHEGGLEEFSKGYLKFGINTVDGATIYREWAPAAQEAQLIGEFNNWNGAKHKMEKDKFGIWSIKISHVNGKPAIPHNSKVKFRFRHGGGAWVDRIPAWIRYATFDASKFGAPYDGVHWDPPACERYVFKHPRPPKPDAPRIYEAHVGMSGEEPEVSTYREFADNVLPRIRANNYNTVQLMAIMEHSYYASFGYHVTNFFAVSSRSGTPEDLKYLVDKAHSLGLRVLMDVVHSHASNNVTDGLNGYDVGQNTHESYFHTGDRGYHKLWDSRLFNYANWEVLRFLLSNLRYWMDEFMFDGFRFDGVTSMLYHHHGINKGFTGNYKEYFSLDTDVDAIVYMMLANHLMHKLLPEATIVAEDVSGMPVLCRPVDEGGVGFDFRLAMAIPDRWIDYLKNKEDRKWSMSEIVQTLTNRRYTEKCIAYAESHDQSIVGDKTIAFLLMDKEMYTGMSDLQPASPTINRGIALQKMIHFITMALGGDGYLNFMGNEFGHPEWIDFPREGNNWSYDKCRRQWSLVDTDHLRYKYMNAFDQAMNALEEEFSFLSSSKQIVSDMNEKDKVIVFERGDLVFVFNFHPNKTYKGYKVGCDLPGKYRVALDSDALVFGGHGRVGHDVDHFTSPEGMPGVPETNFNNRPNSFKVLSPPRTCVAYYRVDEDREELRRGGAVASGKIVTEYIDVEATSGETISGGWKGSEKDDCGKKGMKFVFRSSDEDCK
Kind of experiment: co-IP; soluble proteins of developing seeds of WT (IR36) at 5 DAF incubated with isozyme-specific antibodies and protein A magnetic beads; washed with PBS pH 7.4; Western blotting. (In general: Immunoblotting shows a protein as a band on a membrane.)

In experiment [2] the target is T2, SSI (Oryza sativa subsp. indica cv. IR36 (endogenous in developing seeds)) (UniProt A2Y9M4).
T2 sequence: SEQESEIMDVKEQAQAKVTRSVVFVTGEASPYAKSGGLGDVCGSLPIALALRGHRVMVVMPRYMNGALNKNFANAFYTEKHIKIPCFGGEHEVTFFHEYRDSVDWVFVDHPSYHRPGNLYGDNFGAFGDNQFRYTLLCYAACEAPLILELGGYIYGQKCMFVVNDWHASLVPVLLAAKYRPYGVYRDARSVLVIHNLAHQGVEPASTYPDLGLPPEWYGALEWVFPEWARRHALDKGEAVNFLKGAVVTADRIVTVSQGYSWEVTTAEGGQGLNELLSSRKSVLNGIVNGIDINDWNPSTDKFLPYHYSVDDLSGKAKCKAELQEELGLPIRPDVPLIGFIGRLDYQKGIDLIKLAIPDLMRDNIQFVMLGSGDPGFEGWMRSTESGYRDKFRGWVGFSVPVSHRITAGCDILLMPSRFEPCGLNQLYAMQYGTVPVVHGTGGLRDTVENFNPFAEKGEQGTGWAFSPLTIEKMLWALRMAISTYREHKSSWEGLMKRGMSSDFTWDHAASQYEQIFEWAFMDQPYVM
The description is as above.

Experiment [3] deals with T3, SSIIa (Oryza sativa subsp. indica cv. IR36 (endogenous in developing seeds)) (UniProt P0C586).
T3 sequence: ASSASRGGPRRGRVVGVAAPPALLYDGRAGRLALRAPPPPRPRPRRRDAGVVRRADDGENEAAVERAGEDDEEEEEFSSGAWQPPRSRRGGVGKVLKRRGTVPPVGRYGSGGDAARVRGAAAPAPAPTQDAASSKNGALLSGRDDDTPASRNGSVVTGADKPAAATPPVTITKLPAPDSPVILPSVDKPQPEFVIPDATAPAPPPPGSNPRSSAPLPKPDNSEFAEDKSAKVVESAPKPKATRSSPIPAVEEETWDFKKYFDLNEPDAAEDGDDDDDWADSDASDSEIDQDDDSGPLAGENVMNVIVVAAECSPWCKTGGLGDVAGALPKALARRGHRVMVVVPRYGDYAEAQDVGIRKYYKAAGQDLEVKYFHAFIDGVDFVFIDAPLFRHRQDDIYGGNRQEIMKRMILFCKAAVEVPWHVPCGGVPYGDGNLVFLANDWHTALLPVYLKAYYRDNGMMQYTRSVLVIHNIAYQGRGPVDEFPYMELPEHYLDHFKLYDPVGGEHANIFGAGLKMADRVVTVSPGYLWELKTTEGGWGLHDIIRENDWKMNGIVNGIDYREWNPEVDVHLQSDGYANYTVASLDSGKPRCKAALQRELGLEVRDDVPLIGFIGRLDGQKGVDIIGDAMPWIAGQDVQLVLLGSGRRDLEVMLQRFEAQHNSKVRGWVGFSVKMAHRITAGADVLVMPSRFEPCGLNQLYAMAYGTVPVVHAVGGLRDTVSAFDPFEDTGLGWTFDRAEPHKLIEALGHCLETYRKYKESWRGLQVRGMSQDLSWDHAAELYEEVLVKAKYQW
As to the kind of experiment: co-IP; soluble proteins of developing seeds of the be2b mutant at 5 DAF incubated with isozyme-specific antibodies and protein A magnetic beads; washed with PBS pH 7.4; Western blotting.

Experiment [4] addresses T1, BEI (Oryza sativa subsp. indica cv. IR36 (endogenous in developing seeds)). Kind of experiment: co-IP; soluble proteins of developing seeds of the be2b mutant at 10 DAF incubated with isozyme-specific antibodies and protein A magnetic beads; washed with PBS pH 7.4; Western blotting.
The target of experiment [5] is T3, SSIIa (Oryza sativa subsp. indica cv. IR36 (endogenous in developing seeds)). Described as above.
The target of experiment [6] is T1, BEI (Oryza sativa subsp. indica cv. IR36 (endogenous in developing seeds)). As to the kind of experiment: co-IP; soluble proteins of developing seeds of WT (IR36) at 10 DAF incubated with isozyme-specific antibodies and protein A magnetic beads; washed with PBS pH 7.4; Western blotting.
Experiment [7] concerns the target T2, SSI (Oryza sativa subsp. indica cv. IR36 (endogenous in developing seeds)). Described as above.
Experiment [8] concerns the target T3, SSIIa (Oryza sativa subsp. indica cv. IR36 (endogenous in developing seeds)). Kind of experiment: co-IP; soluble proteins of developing seeds of the be2b mutant at 15 DAF incubated with isozyme-specific antibodies and protein A magnetic beads; washed with PBS pH 7.4; Western blotting.
Experiment [9] has as its target BEIIa (Oryza sativa subsp. indica cv. IR36 (endogenous in developing seeds)). Described as above.
Experiment [10] deals with SSIVb (Oryza sativa subsp. indica cv. IR36 (endogenous in developing seeds)). Described as above.
The target of experiment [11] is BEIIa (Oryza sativa subsp. indica cv. IR36 (endogenous in developing seeds)). Kind of experiment: co-IP; soluble proteins of developing seeds of WT (IR36) at 5 DAF incubated with isozyme-specific antibodies and protein A magnetic beads; washed with PBS pH 7.4; Western blotting.
The target in experiment [12] is SSIVb (Oryza sativa subsp. indica cv. IR36 (endogenous in developing seeds)). Described as above.
In experiment [13] the target is BEIIa (Oryza sativa subsp. indica cv. IR36 (endogenous in developing seeds)). As to the kind of experiment: co-IP; soluble proteins of developing seeds of the be2b mutant at 10 DAF incubated with isozyme-specific antibodies and protein A magnetic beads; washed with PBS pH 7.4; Western blotting.
The target of experiment [14] is SSIVb (Oryza sativa subsp. indica cv. IR36 (endogenous in developing seeds)). The description is as above.
Experiment [15] deals with BEIIa (Oryza sativa subsp. indica cv. IR36 (endogenous in developing seeds)). As to the kind of experiment: co-IP; soluble proteins of developing seeds of WT (IR36) at 10 DAF incubated with isozyme-specific antibodies and protein A magnetic beads; washed with PBS pH 7.4; Western blotting.
Experiment [16] concerns the target SSIVb (Oryza sativa subsp. indica cv. IR36 (endogenous in developing seeds)). Described as above.
Experiment [17] concerns the target BEIIa (Oryza sativa subsp. indica cv. IR36 (endogenous in developing seeds)). As to the kind of experiment: co-IP; soluble proteins of developing seeds of the be2b mutant at 5 DAF incubated with isozyme-specific antibodies and protein A magnetic beads; washed with PBS pH 7.4; Western blotting.
Experiment [18] has as its target SSIVb (Oryza sativa subsp. indica cv. IR36 (endogenous in developing seeds)). The experiment is described as above.
The target of experiment [19] is BEIIa (Oryza sativa subsp. indica cv. IR36 (endogenous in developing seeds)). Kind of experiment: co-IP; soluble proteins of developing seeds of WT (IR36) at 15 DAF incubated with isozyme-specific antibodies and protein A magnetic beads; washed with PBS pH 7.4; Western blotting.
In experiment [20] the target is SSIVb (Oryza sativa subsp. indica cv. IR36 (endogenous in developing seeds)). Described as above.
Experiment [21] has as its target BEIIb (Oryza sativa subsp. indica cv. IR36 (endogenous in developing seeds)). The description is as above.

No constants are given. Whether binding was seen depends on the method and setting. In cells and extracts the contact can be indirect. For part of these data: A result given as binding can be weak or reduced; the word gives no strength.

Consider SSIVb (enzyme), for which the binding result in experiment [1] was “binds weakly”; in experiment [2], “binds weakly”; in experiment [3] it was “no binding”; in experiment [4], “binds”; in experiment [5], “no binding”; in experiment [6], “binds weakly”. Also, the binding entry in experiment [7] is listed as “binds”; in experiment [8], “no binding”.

B1: ISA1 (enzyme, UniProt D0TZF0 55-803)
chain: SVASAVEVGVGEDEEEGVEEEEEEVEAVVMPERYALGGACRVLAGMPAPLGATALDGGVNFAVYSAGASAASLCLFTPDDLEADEVTEEVPLDPLFNRTGNVWHVFIEGELHNMLYGYRFDGMFAPHCGQYFDVSNVVVDPYAKAVISRGEYGVPGPGGDCWPQMAGMIPLPYSTFDWQGDLPLRYPQKDLVIYEMHLRGFTKHSSSNVEHPGTYIGAISKLDYLKELGVNCVELMPCHEFNELEYFSCSSKMNFWGYSTINFFSPMIRYSSGGIRNCGRDAINEFKTFVREAHKRGIEVIMDVVFNHTAEGNEKGPILSFRGIDNSTYYMLAPKGEFYNYSGCGNTFNCNHPVVREFIVDCLRYWVTEMHVDGFRFDLASIMTRGCSLWDPVNVYGSPVEGDMTTTGTPLATPPLIDMISNDPILGDVKLIAEAWDAGGLYQVGQFPHWKIWSEWNGKYRDIVRQFIKGTDGFAGGFAECLCGSPHLYQAGGRKPWHSINFVCAHDGFTLADLVTYNKKYNSSNGEDNRDGENHNLSWNCGEEGEFAGLSVKRLRKRQMRNFFVSLMVSQGVPMFYMGDEYGHTKGGNNNTYCHDHYVNYFRWDKKEESSDLQRFCSLMTKFRKQCESLGLADFPTAQRLHWHGHQPGKPDWSETSRFVAFSTKDETKGEIYVAFNASHLPAVVGLPERPGYRWEPLVDTGKPAPYDFLTDDLPDRAHAVHLFSHFLNSNLYPMLSYSSIILELQPDD
In the case of B1, the binding result in [9], in [10], in experiment [11], in experiment [12], in [13] and in experiment [14] was “no binding” throughout. In addition, the binding result in experiment [15], in experiment [16], in [17], in experiment [18], in [19] and in [20] was “no binding” each time. Besides, the binding result in [21] is on record as “binds weakly”.
